# Assay results as given in the supplement of paper PMC12823440, “Inhibitors supercharge kinase turnover through native proteolytic circuits” (Nature, 2025).
# The chains behind the UniProt entries cited, without tags or fusion partners. Where a name states a change or a piece, a line headed by the entry shows the natural chain unless it says otherwise.
# UniProt Q9Y616: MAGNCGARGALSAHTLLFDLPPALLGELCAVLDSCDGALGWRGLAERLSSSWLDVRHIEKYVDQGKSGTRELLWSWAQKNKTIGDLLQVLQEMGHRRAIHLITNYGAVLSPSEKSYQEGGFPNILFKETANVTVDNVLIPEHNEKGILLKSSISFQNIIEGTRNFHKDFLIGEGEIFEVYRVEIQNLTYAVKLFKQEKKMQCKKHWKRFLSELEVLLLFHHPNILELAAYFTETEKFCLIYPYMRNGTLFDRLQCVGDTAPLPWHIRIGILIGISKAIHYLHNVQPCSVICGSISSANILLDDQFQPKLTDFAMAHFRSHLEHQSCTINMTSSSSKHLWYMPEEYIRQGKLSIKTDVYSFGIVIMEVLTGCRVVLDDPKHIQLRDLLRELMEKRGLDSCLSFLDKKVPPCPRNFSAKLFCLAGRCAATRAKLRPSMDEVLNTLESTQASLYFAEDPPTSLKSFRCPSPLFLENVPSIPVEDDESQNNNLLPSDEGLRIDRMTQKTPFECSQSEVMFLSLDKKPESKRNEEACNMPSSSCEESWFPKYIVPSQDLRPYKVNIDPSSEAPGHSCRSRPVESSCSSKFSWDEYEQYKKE
# UniProt P23458: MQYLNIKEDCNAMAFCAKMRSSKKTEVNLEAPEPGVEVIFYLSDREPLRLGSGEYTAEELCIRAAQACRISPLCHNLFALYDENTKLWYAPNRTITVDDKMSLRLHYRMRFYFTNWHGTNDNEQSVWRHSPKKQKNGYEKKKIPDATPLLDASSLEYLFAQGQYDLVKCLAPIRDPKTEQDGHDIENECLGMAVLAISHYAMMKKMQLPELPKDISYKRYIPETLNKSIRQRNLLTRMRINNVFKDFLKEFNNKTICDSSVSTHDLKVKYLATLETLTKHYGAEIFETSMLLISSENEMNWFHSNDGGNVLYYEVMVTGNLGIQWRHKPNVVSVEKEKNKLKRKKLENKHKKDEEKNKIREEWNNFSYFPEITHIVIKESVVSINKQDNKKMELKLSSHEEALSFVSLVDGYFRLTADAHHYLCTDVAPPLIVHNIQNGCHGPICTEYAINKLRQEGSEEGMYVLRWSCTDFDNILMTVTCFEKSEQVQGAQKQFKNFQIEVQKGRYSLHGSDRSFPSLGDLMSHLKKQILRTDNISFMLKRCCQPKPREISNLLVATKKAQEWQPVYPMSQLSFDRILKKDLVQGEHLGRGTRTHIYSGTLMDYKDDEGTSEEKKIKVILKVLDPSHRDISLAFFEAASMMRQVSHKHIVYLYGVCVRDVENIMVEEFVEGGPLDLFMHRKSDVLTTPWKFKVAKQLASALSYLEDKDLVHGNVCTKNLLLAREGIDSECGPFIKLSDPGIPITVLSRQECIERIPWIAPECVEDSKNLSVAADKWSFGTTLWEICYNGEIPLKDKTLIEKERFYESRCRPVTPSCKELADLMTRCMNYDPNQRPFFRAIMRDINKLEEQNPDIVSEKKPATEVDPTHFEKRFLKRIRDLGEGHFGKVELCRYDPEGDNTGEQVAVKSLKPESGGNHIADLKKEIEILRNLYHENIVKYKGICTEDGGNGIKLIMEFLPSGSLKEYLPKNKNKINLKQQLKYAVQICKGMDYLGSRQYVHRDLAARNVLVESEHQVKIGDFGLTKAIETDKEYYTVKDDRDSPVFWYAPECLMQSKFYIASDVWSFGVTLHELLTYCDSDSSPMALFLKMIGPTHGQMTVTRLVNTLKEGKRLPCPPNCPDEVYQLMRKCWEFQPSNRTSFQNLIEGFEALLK
# UniProt P06239: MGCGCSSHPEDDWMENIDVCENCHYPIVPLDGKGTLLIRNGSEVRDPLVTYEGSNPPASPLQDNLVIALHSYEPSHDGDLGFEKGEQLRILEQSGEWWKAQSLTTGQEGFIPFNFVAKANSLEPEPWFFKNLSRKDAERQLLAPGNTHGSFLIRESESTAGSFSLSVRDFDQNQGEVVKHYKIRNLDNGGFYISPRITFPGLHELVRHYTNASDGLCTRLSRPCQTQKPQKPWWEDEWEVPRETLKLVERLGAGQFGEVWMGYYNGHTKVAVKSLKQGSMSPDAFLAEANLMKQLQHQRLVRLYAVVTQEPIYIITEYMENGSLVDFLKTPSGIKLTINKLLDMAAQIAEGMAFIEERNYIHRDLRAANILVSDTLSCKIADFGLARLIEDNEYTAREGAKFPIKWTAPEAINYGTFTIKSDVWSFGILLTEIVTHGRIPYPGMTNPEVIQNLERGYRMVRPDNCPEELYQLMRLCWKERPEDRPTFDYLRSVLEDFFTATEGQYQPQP
# UniProt P53671: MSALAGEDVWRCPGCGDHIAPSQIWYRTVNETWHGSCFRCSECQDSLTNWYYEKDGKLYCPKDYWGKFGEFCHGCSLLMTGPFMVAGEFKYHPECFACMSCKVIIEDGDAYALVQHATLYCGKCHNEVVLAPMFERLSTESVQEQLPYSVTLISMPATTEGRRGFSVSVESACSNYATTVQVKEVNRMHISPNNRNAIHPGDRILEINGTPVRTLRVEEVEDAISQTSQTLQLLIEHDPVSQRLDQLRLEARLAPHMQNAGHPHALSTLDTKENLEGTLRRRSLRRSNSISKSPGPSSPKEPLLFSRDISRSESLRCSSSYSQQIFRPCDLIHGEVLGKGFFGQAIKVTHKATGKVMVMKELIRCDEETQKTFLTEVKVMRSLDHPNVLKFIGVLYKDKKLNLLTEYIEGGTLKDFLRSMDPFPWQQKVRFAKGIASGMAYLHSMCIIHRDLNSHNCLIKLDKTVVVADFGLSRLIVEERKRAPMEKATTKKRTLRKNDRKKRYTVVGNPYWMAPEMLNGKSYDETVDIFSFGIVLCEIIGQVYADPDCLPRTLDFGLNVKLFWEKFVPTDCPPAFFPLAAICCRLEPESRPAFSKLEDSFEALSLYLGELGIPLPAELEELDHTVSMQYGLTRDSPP
# UniProt Q12851: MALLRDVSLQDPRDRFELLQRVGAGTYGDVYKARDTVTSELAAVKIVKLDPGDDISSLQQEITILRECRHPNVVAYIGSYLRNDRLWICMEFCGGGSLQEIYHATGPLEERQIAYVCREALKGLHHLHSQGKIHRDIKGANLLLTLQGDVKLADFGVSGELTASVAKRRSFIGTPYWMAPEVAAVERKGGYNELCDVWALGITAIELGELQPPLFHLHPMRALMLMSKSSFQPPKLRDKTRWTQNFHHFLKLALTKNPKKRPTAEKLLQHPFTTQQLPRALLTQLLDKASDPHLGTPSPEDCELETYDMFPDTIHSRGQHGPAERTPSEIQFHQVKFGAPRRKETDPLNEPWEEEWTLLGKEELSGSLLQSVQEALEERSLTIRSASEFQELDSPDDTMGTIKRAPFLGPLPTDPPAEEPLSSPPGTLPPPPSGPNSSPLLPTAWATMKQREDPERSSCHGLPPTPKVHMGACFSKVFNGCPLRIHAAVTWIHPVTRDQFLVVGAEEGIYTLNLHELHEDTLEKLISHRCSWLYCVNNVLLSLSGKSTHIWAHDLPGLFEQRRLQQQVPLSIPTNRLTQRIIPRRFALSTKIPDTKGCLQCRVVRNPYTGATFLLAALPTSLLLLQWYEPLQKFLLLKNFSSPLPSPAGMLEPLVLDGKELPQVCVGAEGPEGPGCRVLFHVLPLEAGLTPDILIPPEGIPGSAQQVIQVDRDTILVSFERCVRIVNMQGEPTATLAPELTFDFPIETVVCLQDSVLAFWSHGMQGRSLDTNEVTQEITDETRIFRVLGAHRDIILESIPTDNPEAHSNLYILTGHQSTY
# UniProt P28482, whole entry: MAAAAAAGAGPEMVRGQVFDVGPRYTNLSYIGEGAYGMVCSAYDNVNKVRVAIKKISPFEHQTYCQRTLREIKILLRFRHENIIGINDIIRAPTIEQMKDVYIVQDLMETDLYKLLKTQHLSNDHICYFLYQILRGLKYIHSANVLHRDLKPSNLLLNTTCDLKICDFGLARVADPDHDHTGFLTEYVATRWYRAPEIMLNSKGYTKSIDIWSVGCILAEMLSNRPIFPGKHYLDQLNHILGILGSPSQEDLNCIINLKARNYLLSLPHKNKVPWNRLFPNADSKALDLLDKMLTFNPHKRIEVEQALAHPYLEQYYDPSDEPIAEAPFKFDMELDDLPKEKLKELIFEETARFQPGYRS
# UniProt P49137, whole entry, looked up: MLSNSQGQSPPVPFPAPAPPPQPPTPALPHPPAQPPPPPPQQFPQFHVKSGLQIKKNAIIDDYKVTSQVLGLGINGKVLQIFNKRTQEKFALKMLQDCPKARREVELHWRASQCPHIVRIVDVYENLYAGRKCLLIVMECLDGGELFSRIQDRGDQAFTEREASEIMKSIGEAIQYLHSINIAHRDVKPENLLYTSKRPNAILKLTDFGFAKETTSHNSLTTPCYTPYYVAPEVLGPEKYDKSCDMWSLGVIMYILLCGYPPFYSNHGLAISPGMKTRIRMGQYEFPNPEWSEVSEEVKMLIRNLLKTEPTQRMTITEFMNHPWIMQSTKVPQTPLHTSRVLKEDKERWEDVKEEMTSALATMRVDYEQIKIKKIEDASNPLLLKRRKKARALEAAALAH
# UniProt Q16620, whole entry, looked up: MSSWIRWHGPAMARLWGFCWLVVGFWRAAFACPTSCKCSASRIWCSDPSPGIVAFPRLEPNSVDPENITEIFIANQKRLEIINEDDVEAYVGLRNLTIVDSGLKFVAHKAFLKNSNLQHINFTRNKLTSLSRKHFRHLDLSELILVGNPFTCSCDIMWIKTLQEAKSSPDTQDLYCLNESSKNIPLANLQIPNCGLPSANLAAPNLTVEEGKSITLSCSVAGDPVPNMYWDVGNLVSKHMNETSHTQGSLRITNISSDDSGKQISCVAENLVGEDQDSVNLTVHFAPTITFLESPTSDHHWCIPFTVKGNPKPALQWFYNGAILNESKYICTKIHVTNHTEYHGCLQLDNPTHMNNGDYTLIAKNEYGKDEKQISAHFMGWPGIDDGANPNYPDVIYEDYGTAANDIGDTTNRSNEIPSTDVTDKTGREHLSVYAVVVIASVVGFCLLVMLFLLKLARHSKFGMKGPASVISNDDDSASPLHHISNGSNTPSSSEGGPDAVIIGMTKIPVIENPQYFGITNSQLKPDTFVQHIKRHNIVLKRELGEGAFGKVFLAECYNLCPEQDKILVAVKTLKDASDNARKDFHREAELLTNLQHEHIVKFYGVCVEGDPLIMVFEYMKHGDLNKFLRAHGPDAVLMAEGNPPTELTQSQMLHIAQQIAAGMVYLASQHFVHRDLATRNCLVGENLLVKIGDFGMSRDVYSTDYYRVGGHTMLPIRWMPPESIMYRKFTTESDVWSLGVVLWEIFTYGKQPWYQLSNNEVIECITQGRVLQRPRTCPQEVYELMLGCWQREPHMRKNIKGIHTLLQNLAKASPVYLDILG
# UniProt Q16288, whole entry, looked up: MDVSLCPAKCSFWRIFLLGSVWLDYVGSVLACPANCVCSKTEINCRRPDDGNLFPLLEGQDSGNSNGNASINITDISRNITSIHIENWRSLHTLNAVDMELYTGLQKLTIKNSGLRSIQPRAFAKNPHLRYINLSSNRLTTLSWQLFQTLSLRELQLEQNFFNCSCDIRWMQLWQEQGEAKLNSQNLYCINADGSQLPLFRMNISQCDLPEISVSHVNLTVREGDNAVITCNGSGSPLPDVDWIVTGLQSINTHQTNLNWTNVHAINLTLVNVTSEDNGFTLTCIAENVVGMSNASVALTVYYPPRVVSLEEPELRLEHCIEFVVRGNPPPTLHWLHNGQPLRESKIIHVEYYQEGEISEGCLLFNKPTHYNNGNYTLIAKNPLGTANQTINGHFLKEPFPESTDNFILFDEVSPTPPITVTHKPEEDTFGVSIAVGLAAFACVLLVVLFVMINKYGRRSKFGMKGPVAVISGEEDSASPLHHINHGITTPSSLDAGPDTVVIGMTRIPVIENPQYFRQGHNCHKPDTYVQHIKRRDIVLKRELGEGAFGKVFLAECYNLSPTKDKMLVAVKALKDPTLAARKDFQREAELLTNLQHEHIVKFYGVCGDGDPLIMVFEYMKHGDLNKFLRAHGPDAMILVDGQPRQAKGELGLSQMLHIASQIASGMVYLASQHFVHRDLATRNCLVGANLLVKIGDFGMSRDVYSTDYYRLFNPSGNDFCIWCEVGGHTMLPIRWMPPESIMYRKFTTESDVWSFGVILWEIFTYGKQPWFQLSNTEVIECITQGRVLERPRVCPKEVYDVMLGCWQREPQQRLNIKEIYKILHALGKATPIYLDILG
# UniProt Q15118, whole entry, looked up: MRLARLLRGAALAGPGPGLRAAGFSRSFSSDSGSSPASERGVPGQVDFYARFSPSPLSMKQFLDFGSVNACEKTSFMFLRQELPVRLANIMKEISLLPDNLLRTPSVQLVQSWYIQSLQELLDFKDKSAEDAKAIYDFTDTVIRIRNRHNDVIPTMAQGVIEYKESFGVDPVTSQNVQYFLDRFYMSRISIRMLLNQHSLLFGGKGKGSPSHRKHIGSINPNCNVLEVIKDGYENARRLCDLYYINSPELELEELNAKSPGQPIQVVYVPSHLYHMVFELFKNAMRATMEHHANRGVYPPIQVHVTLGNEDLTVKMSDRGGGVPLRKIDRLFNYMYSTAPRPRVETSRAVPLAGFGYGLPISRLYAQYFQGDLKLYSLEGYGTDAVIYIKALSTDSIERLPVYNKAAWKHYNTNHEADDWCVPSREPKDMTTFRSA
# Some of the results follow. The calls rarely recur for the same compound in another form.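 Kinases were expressed as nanoluciferase fusions in K562 cells and luminescence was read every 4 h between 2 and 18 h as percent of control, DMSO set to 100% and a positive control to 0%. A time point counts as decreased when the signal drops significantly (2 sigma). The hit call is the authors' own, does not follow from the count of time points alone, and its rule is not shown.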
# Tests used:
# Assay in all cases: kinase-Nluc reporter destabilization hit call (1 = scored as downregulated) (binary); higher = compound decreases kinase abundance
# Settings in all cases: K562; 2-18 h
# IRAK3 = IRAK3 (UniProt Q9Y616)
# JAK1 = JAK1 (UniProt P23458)
# LCK = LCK (UniProt P06239)
# LIMK1 = LIMK1 (UniProt P53667)
# LIMK2 = LIMK2 (UniProt P53671)
# LMTK2 = LMTK2 (UniProt Q8IWU2)
# LYN = LYN (UniProt P07948)
# MAP2K1 = MAP2K1 (UniProt Q02750)
# MAP2K2 = MAP2K2 (UniProt P36507)
# MAP4K2 = MAP4K2 (UniProt Q12851)
# MAPK1 = MAPK1 (UniProt P28482)
# MAPK4 = MAPK4 (UniProt P31152)
# MAPKAPK2 = MAPKAPK2 (UniProt P49137)
# MKNK1 = MKNK1 (UniProt Q9BUB5)
# NTRK2 = NTRK2 (UniProt Q16620)
# NTRK3 = NTRK3 (UniProt Q16288)
# PAK4 = PAK4 (UniProt O96013)
# PBK = PBK (UniProt Q96KB5)
# PDGFRB = PDGFRB (UniProt P09619)
# PDK1 = PDK1 (UniProt Q15118)
SMILES,kinase-Nluc reporter destabilization hit call (IRAK3),kinase-Nluc reporter destabilization hit call (JAK1),kinase-Nluc reporter destabilization hit call (LCK),kinase-Nluc reporter destabilization hit call (LIMK1),kinase-Nluc reporter destabilization hit call (LIMK2),kinase-Nluc reporter destabilization hit call (LMTK2),kinase-Nluc reporter destabilization hit call (LYN),kinase-Nluc reporter destabilization hit call (MAP2K1),kinase-Nluc reporter destabilization hit call (MAP2K2),kinase-Nluc reporter destabilization hit call (MAP4K2),kinase-Nluc reporter destabilization hit call (MAPK1),kinase-Nluc reporter destabilization hit call (MAPK4),kinase-Nluc reporter destabilization hit call (MAPKAPK2),kinase-Nluc reporter destabilization hit call (MKNK1),kinase-Nluc reporter destabilization hit call (NTRK2),kinase-Nluc reporter destabilization hit call (NTRK3),kinase-Nluc reporter destabilization hit call (PAK4),kinase-Nluc reporter destabilization hit call (PBK),kinase-Nluc reporter destabilization hit call (PDGFRB),kinase-Nluc reporter destabilization hit call (PDK1)
O=C(Nc1ccnc(NC(=O)C2CC2)c1)c1c(Cl)cccc1Cl (10 µM),inactive: 0,inactive: 0,inactive: 0,inactive: 0,inactive: 0,inactive: 0,inactive: 0,inactive: 0,inactive: 0,inactive: 0,inactive: 0,inactive: 0,inactive: 0,inactive: 0,inactive: 0,inactive: 0,inactive: 0,inactive: 0,inactive: 0,inactive: 0
CNC(=O)CN1CCC(Oc2cc3c(Nc4cccc(Cl)c4F)ncnc3cc2OC)CC1 [Sapitinib] (10 µM),inactive: 0,inactive: 0,inactive: 0,inactive: 0,inactive: 0,inactive: 0,inactive: 0,inactive: 0,inactive: 0,inactive: 0,inactive: 0,inactive: 0,inactive: 0,inactive: 0,inactive: 0,inactive: 0,inactive: 0,inactive: 0,inactive: 0,inactive: 0
CCn1c(N)c(C(=O)NC)c(=O)c2ccc(C#CC(C)(O)COC)nc21 (stereo not given) (10 µM),inactive: 0,inactive: 0,inactive: 0,inactive: 0,inactive: 0,inactive: 0,inactive: 0,inactive: 0,inactive: 0,inactive: 0,inactive: 0,inactive: 0,inactive: 0,inactive: 0,inactive: 0,inactive: 0,inactive: 0,inactive: 0,inactive: 0,inactive: 0
COc1cc2nc(NC3CC3)nc(NC3CCN(C(C)C)CC3)c2cc1OC (10 µM),inactive: 0,inactive: 0,inactive: 0,inactive: 0,inactive: 0,inactive: 0,inactive: 0,inactive: 0,inactive: 0,inactive: 0,inactive: 0,inactive: 0,inactive: 0,inactive: 0,inactive: 0,inactive: 0,inactive: 0,inactive: 0,inactive: 0,inactive: 0
O=C(Nc1ccc(F)cc1F)C(NC(=S)Nc1cc(C(F)(F)F)cc(C(F)(F)F)c1)c1ccccc1 (racemic) (2.5 µM),inactive: 0,inactive: 0,inactive: 0,inactive: 0,inactive: 0,inactive: 0,inactive: 0,inactive: 0,inactive: 0,inactive: 0,inactive: 0,inactive: 0,inactive: 0,inactive: 0,inactive: 0,inactive: 0,inactive: 0,inactive: 0,inactive: 0,inactive: 0
Nc1nc(Nc2ccc3c(c2)CC[C@@H](N2CCCC2)CC3)nn1-c1cc2c(nn1)-c1ccccc1CCC2 [Bemcentinib] (2.5 µM),inactive: 0,inactive: 0,inactive: 0,inactive: 0,inactive: 0,inactive: 0,inactive: 0,inactive: 0,inactive: 0,inactive: 0,inactive: 0,inactive: 0,inactive: 0,inactive: 0,inactive: 0,inactive: 0,inactive: 0,inactive: 0,inactive: 0,inactive: 0
O=c1cc(N2CCOCC2)oc2c(-c3cccc4c3sc3ccccc34)cccc12 (10 µM),inactive: 0,inactive: 0,inactive: 0,inactive: 0,inactive: 0,inactive: 0,inactive: 0,inactive: 0,inactive: 0,inactive: 0,inactive: 0,inactive: 0,inactive: 0,inactive: 0,inactive: 0,inactive: 0,inactive: 0,inactive: 0,inactive: 0,inactive: 0
CC(C)n1c(CO)nc2c(F)cc(-c3nc(Nc4ccc(CN5CCNCC5)cn4)ncc3F)cc21 (10 µM),inactive: 0,inactive: 0,inactive: 0,inactive: 0,inactive: 0,inactive: 0,inactive: 0,inactive: 0,inactive: 0,inactive: 0,inactive: 0,inactive: 0,inactive: 0,inactive: 0,inactive: 0,inactive: 0,inactive: 0,inactive: 0,inactive: 0,inactive: 0
CC(C)=CCC[C@](C)(O[C@@H]1O[C@H](CO[C@@H]2O[C@H](CO)[C@@H](O)[C@H](O)[C@H]2O)[C@@H](O)[C@H](O)[C@H]1O)[C@H]1CC[C@]2(C)[C@@H]1[C@H](O)C[C@@H]1[C@@]3(C)CC[C@H](O[C@@H]4O[C@H](CO)[C@@H](O)[C@H](O)[C@H]4O[C@@H]4O[C@H](CO)[C@@H](O)[C@H](O)[C@H]4O)C(C)(C)[C@@H]3CC[C@]12C [Ginsenoside Rb1] (10 µM),inactive: 0,inactive: 0,inactive: 0,inactive: 0,inactive: 0,inactive: 0,inactive: 0,inactive: 0,inactive: 0,inactive: 0,inactive: 0,inactive: 0,inactive: 0,inactive: 0,inactive: 0,inactive: 0,inactive: 0,inactive: 0,inactive: 0,inactive: 0
CNCCOc1ccccc1C1(Nc2nccn(-c3cc(C(=O)NC4CC4)cc(F)c3C)c2=O)CC1 (10 µM),inactive: 0,inactive: 0,inactive: 0,inactive: 0,inactive: 0,inactive: 0,inactive: 0,inactive: 0,inactive: 0,inactive: 0,inactive: 0,inactive: 0,inactive: 0,inactive: 0,inactive: 0,inactive: 0,inactive: 0,inactive: 0,inactive: 0,inactive: 0
Nc1ccc(C(=O)Nc2cccc(-c3nc(N4CCOCC4)c4oc5ncccc5c4n3)c2)cn1 (10 µM),inactive: 0,inactive: 0,inactive: 0,inactive: 0,inactive: 0,inactive: 0,inactive: 0,inactive: 0,inactive: 0,inactive: 0,inactive: 0,inactive: 0,inactive: 0,active: 1,inactive: 0,inactive: 0,inactive: 0,inactive: 0,inactive: 0,inactive: 0
CCCCNc1ncc(C(=O)NCc2ccc(-n3ccnc3)cc2)c(NC2CCC(O)CC2)n1 (stereo not given) (10 µM),inactive: 0,inactive: 0,inactive: 0,inactive: 0,inactive: 0,inactive: 0,inactive: 0,inactive: 0,inactive: 0,inactive: 0,inactive: 0,inactive: 0,inactive: 0,inactive: 0,inactive: 0,inactive: 0,inactive: 0,inactive: 0,inactive: 0,inactive: 0
N#Cc1cnc(Nc2cc(NC[C@H]3CNCCO3)c(C(F)(F)F)cn2)cn1 (10 µM),inactive: 0,inactive: 0,inactive: 0,inactive: 0,inactive: 0,inactive: 0,inactive: 0,inactive: 0,inactive: 0,inactive: 0,inactive: 0,inactive: 0,inactive: 0,inactive: 0,inactive: 0,inactive: 0,inactive: 0,inactive: 0,inactive: 0,inactive: 0
O=CN1CCN(c2ccc(C=C3C(=O)Nc4ccccc43)cc2)CC1 (10 µM),inactive: 0,inactive: 0,inactive: 0,inactive: 0,inactive: 0,inactive: 0,inactive: 0,inactive: 0,inactive: 0,inactive: 0,inactive: 0,inactive: 0,inactive: 0,inactive: 0,inactive: 0,inactive: 0,inactive: 0,inactive: 0,inactive: 0,inactive: 0
CS(=O)(=O)c1cccc(CNc2nc(Nc3ccc4c(c3)CCC(=O)N4)ncc2C(F)(F)F)c1 (10 µM),inactive: 0,inactive: 0,inactive: 0,inactive: 0,inactive: 0,inactive: 0,inactive: 0,inactive: 0,inactive: 0,inactive: 0,inactive: 0,inactive: 0,inactive: 0,inactive: 0,inactive: 0,inactive: 0,inactive: 0,inactive: 0,inactive: 0,inactive: 0
NC(=O)c1c(NC(=O)C2CC2)sc2c1CCCC2 (10 µM),inactive: 0,inactive: 0,inactive: 0,inactive: 0,inactive: 0,inactive: 0,inactive: 0,inactive: 0,inactive: 0,inactive: 0,inactive: 0,inactive: 0,inactive: 0,inactive: 0,inactive: 0,inactive: 0,inactive: 0,inactive: 0,inactive: 0,inactive: 0
C[C@H](Nc1cc2c(-c3ccc4c(c3)OCO4)noc2cn1)c1ccccc1 (10 µM),inactive: 0,inactive: 0,inactive: 0,inactive: 0,inactive: 0,inactive: 0,inactive: 0,inactive: 0,inactive: 0,inactive: 0,inactive: 0,inactive: 0,inactive: 0,inactive: 0,inactive: 0,inactive: 0,inactive: 0,inactive: 0,inactive: 0,inactive: 0
CC(=O)Nc1nc(C)c(-c2cc(C)c3c(c2)CN([C@@H](C)C2CC2)C3=O)s1 (10 µM),inactive: 0,inactive: 0,inactive: 0,inactive: 0,inactive: 0,inactive: 0,inactive: 0,inactive: 0,inactive: 0,inactive: 0,inactive: 0,inactive: 0,inactive: 0,inactive: 0,inactive: 0,inactive: 0,inactive: 0,inactive: 0,inactive: 0,inactive: 0

# No new results follow: four of the compounds above.
SMILES,kinase-Nluc reporter destabilization hit call (IRAK3),kinase-Nluc reporter destabilization hit call (JAK1),kinase-Nluc reporter destabilization hit call (LCK),kinase-Nluc reporter destabilization hit call (LIMK1),kinase-Nluc reporter destabilization hit call (LIMK2),kinase-Nluc reporter destabilization hit call (LMTK2),kinase-Nluc reporter destabilization hit call (LYN),kinase-Nluc reporter destabilization hit call (MAP2K1),kinase-Nluc reporter destabilization hit call (MAP2K2),kinase-Nluc reporter destabilization hit call (MAP4K2),kinase-Nluc reporter destabilization hit call (MAPK1),kinase-Nluc reporter destabilization hit call (MAPK4),kinase-Nluc reporter destabilization hit call (MAPKAPK2),kinase-Nluc reporter destabilization hit call (MKNK1),kinase-Nluc reporter destabilization hit call (NTRK2),kinase-Nluc reporter destabilization hit call (NTRK3),kinase-Nluc reporter destabilization hit call (PAK4),kinase-Nluc reporter destabilization hit call (PBK),kinase-Nluc reporter destabilization hit call (PDGFRB),kinase-Nluc reporter destabilization hit call (PDK1)
Nc1ccc(C(=O)Nc2cccc(-c3nc(N4CCOCC4)c4oc5ncccc5c4n3)c2)cn1 (10 µM),inactive: 0,inactive: 0,inactive: 0,inactive: 0,inactive: 0,inactive: 0,inactive: 0,inactive: 0,inactive: 0,inactive: 0,inactive: 0,inactive: 0,inactive: 0,active: 1,inactive: 0,inactive: 0,inactive: 0,inactive: 0,inactive: 0,inactive: 0
CCCCNc1ncc(C(=O)NCc2ccc(-n3ccnc3)cc2)c(NC2CCC(O)CC2)n1 (stereo not given) (10 µM),inactive: 0,inactive: 0,inactive: 0,inactive: 0,inactive: 0,inactive: 0,inactive: 0,inactive: 0,inactive: 0,inactive: 0,inactive: 0,inactive: 0,inactive: 0,inactive: 0,inactive: 0,inactive: 0,inactive: 0,inactive: 0,inactive: 0,inactive: 0
N#Cc1cnc(Nc2cc(NC[C@H]3CNCCO3)c(C(F)(F)F)cn2)cn1 (10 µM),inactive: 0,inactive: 0,inactive: 0,inactive: 0,inactive: 0,inactive: 0,inactive: 0,inactive: 0,inactive: 0,inactive: 0,inactive: 0,inactive: 0,inactive: 0,inactive: 0,inactive: 0,inactive: 0,inactive: 0,inactive: 0,inactive: 0,inactive: 0
O=CN1CCN(c2ccc(C=C3C(=O)Nc4ccccc43)cc2)CC1 (10 µM),inactive: 0,inactive: 0,inactive: 0,inactive: 0,inactive: 0,inactive: 0,inactive: 0,inactive: 0,inactive: 0,inactive: 0,inactive: 0,inactive: 0,inactive: 0,inactive: 0,inactive: 0,inactive: 0,inactive: 0,inactive: 0,inactive: 0,inactive: 0
